Among the data in article doi:10.1101/2020.03.29.015024 are binding values, retold here.

The chains behind the UniProt entries cited, without tags or fusion partners.
UniProt Q9JMB7: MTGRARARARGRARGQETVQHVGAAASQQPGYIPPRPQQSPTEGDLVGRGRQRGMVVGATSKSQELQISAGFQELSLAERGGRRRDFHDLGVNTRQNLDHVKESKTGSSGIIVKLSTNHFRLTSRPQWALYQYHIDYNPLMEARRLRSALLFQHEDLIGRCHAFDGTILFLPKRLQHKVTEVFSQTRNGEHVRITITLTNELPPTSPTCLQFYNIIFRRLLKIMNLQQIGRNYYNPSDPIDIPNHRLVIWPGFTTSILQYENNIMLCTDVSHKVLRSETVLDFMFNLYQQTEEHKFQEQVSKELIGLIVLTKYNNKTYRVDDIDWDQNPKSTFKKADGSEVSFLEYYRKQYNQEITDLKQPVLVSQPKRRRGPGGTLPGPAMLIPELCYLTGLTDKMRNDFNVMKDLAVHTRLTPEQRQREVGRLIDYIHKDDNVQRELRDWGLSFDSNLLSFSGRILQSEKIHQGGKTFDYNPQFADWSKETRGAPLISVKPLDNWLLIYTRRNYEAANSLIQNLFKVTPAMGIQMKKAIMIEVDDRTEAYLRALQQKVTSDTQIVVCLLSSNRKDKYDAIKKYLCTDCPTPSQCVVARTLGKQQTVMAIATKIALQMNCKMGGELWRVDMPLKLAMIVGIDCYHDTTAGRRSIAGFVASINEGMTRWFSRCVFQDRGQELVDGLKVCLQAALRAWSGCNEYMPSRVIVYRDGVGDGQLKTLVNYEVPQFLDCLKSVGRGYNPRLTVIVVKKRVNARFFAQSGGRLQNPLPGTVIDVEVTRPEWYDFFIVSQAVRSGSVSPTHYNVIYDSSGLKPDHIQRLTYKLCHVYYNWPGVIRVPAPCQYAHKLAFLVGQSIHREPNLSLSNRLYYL
UniProt Q9Z2C8: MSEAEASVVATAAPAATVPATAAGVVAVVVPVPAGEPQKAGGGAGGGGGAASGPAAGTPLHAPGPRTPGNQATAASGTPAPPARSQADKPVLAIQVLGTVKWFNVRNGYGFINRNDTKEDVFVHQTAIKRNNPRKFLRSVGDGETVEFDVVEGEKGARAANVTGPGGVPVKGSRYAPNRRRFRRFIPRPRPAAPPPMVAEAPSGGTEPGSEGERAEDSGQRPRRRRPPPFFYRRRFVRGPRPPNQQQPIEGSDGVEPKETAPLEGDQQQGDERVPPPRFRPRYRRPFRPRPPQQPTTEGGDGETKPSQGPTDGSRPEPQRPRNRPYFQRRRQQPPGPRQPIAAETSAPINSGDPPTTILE
UniProt P62631: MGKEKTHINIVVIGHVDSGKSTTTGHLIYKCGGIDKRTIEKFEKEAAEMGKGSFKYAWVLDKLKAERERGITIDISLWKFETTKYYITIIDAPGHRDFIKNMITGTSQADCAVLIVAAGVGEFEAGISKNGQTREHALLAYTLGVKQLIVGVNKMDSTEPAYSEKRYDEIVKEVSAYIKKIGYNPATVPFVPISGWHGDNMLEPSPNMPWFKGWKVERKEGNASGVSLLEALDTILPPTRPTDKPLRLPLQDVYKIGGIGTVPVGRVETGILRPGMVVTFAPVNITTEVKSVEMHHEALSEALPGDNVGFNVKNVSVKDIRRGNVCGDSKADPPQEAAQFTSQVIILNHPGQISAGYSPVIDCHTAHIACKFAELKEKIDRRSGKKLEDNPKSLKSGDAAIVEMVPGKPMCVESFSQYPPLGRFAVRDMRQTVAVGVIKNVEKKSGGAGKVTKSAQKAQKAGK

Where two headings read alike, the source gives them in different places. No constants are given. Whether binding was seen depends on the method and setting. In cells and extracts the contact can be indirect. Some entries that bind do so weakly or less than the wild type. Tags and fused reporters may be left off the sequences shown.

Common to all, as to assay: co-IP
Assay [1] has as its target T1, Mitofusin 2 (MFN2) (mouse (endogenous in testis)) (UniProt Q80U63).
T1 sequence: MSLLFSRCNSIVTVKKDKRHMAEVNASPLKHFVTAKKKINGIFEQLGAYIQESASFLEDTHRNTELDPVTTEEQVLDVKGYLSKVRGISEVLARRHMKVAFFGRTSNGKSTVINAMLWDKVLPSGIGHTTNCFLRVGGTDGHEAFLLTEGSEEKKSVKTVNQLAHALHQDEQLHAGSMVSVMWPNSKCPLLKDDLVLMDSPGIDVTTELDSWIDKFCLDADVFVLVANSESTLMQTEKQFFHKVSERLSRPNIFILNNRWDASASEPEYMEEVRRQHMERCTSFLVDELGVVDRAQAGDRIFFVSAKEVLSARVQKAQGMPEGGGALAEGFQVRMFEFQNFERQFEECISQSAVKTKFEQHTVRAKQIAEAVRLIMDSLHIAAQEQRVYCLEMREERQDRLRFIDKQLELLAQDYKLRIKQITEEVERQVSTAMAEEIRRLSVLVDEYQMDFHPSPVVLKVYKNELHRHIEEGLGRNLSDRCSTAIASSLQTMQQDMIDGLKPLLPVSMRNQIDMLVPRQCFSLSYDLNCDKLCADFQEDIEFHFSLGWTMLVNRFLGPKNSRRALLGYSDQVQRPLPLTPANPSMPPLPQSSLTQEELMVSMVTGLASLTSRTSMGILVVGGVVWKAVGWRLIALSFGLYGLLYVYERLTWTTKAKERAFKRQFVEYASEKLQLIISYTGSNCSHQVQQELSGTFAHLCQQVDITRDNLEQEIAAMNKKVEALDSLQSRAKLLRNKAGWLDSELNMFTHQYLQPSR

Assay [2] concerns the target T1, Mitofusin 2 (MFN2) (mouse (endogenous in testis)). This is another data set of the same source.
The target in assay [3] is T2, MYC-tagged full-length TDRKH (mouse) (UniProt Q80VL1).
T2 sequence: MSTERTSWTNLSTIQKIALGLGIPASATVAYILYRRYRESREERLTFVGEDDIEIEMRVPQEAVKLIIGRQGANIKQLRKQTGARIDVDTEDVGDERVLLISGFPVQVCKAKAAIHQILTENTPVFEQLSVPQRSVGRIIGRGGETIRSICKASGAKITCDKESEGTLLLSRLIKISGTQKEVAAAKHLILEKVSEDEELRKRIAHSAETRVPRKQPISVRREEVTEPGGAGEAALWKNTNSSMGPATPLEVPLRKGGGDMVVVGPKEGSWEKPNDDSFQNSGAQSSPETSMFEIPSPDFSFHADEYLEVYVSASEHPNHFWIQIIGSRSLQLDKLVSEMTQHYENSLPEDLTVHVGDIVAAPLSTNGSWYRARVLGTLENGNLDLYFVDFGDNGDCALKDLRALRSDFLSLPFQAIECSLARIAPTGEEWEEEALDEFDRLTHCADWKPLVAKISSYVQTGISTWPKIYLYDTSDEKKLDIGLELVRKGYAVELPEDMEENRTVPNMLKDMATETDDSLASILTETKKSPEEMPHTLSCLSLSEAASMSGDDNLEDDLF

Assay [4] concerns the target T3, MYC-tagged full-length DDX4 (mouse) (UniProt Q61496).
T3 sequence: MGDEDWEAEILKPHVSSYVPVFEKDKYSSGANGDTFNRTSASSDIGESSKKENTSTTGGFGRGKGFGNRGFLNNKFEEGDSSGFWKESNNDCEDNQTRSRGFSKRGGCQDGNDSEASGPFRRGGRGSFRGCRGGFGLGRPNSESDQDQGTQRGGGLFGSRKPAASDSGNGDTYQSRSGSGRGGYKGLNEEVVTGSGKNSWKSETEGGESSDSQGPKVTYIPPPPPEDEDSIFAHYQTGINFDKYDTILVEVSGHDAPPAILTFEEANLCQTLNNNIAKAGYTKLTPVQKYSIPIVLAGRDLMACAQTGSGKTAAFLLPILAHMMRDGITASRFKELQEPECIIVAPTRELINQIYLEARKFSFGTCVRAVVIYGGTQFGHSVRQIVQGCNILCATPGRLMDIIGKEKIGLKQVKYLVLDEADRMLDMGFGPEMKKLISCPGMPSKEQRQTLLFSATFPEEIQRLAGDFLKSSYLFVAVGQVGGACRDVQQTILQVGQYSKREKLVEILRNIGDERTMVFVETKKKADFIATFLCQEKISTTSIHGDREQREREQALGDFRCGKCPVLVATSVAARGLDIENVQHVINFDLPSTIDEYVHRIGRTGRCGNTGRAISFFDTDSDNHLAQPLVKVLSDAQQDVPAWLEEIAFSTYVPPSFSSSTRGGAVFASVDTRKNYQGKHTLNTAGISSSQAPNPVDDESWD

Assay [5] deals with MYC-tagged full-length MIWI (mouse) (UniProt Q9JMB7).
The target of assay [6] is MYC-tagged full-length MSY2 (mouse) (UniProt Q9Z2C8).

In the case of MIWI (from UniProt Q9JMB7 1-862), the binding entry in assay [1] is on record as “binds”.
Consider MSY2 (from UniProt Q9Z2C8 1-360), for which, in assay [1], the binding result was “binds”.
With “eukaryotic elongation factor 1 alpha 2 (eEF1A2) (from UniProt P62631 1-463)”, in assay [1], the binding result is listed as “binds”.

B1: MAEL (protein, UniProt Q8BVN9 1-434)
chain: MPNRRASRNAYYFFVQEKIPELRRRGLPVARVADAIPYCSADWALLREDEKEKYSEMAREWRAAQGKDSGPSEKQKLVSTPLRRPGMLVPKPSISPPDMSNLSIKSDQALLGGIFYFLNIFSHGELPPHCEQRFLPCEIGCVKYSLQEGIMADFHSFIHPGEIPRGFRFHCQAASDSSHKIPISNFEFGHDQATVLQNLYKFIHPNPGNWPPIYCKSDDRARVNWCLKRMERASEIRQDLELLTVEDLVVGIYQQKFLKEPSKTWVRSLLDVAMWDYSSNTRCKWHEENDILFCALAVCKKIAYCISNSLATLFGIQLTGAHVPLQDYEASNSVTPKMVVLDAGRYQKLRVESPGFCHFNSYNQEQRSNTSTGYYPSGVKISGPHSSVRGRGITRLLESISNSSNNIHRFSSCETSLSPYTPQKDGYKPFSSFS
For the molecule B1, the binding result in assay [2] is listed as “no binding”.

B2: 2X FLAG-tagged full-length MFN2 (protein, UniProt Q80U63 1-757)
chain: MSLLFSRCNSIVTVKKDKRHMAEVNASPLKHFVTAKKKINGIFEQLGAYIQESASFLEDTHRNTELDPVTTEEQVLDVKGYLSKVRGISEVLARRHMKVAFFGRTSNGKSTVINAMLWDKVLPSGIGHTTNCFLRVGGTDGHEAFLLTEGSEEKKSVKTVNQLAHALHQDEQLHAGSMVSVMWPNSKCPLLKDDLVLMDSPGIDVTTELDSWIDKFCLDADVFVLVANSESTLMQTEKQFFHKVSERLSRPNIFILNNRWDASASEPEYMEEVRRQHMERCTSFLVDELGVVDRAQAGDRIFFVSAKEVLSARVQKAQGMPEGGGALAEGFQVRMFEFQNFERQFEECISQSAVKTKFEQHTVRAKQIAEAVRLIMDSLHIAAQEQRVYCLEMREERQDRLRFIDKQLELLAQDYKLRIKQITEEVERQVSTAMAEEIRRLSVLVDEYQMDFHPSPVVLKVYKNELHRHIEEGLGRNLSDRCSTAIASSLQTMQQDMIDGLKPLLPVSMRNQIDMLVPRQCFSLSYDLNCDKLCADFQEDIEFHFSLGWTMLVNRFLGPKNSRRALLGYSDQVQRPLPLTPANPSMPPLPQSSLTQEELMVSMVTGLASLTSRTSMGILVVGGVVWKAVGWRLIALSFGLYGLLYVYERLTWTTKAKERAFKRQFVEYASEKLQLIISYTGSNCSHQVQQELSGTFAHLCQQVDITRDNLEQEIAAMNKKVEALDSLQSRAKLLRNKAGWLDSELNMFTHQYLQPSR
Consider B2, for which the binding entry in assay [3], in assay [4], in assay [5] and in assay [6] was “binds” throughout.

B3: TDRKH (protein, UniProt Q80VL1 1-560)
chain: MSTERTSWTNLSTIQKIALGLGIPASATVAYILYRRYRESREERLTFVGEDDIEIEMRVPQEAVKLIIGRQGANIKQLRKQTGARIDVDTEDVGDERVLLISGFPVQVCKAKAAIHQILTENTPVFEQLSVPQRSVGRIIGRGGETIRSICKASGAKITCDKESEGTLLLSRLIKISGTQKEVAAAKHLILEKVSEDEELRKRIAHSAETRVPRKQPISVRREEVTEPGGAGEAALWKNTNSSMGPATPLEVPLRKGGGDMVVVGPKEGSWEKPNDDSFQNSGAQSSPETSMFEIPSPDFSFHADEYLEVYVSASEHPNHFWIQIIGSRSLQLDKLVSEMTQHYENSLPEDLTVHVGDIVAAPLSTNGSWYRARVLGTLENGNLDLYFVDFGDNGDCALKDLRALRSDFLSLPFQAIECSLARIAPTGEEWEEEALDEFDRLTHCADWKPLVAKISSYVQTGISTWPKIYLYDTSDEKKLDIGLELVRKGYAVELPEDMEENRTVPNMLKDMATETDDSLASILTETKKSPEEMPHTLSCLSLSEAASMSGDDNLEDDLF
For B3, the binding result in assay [2] is “binds”.
